Measured values taken from patent US20030004123A1, “Targeted gene transfer using G protein coupled receptors” (priority 1997, published 2003).
For at least one compound, name, drawing or mass did not settle the structure. No end group written: not given here.

Experiments:
[1] = system: WD human airway epithelial cells; assay: Cl- secretory response of WD human airway epithelial cultures to lumenal agonists; format: cell-based; settings: agonist at 10^−4M, FIG. 3
Text: Epithelial cells are derived from CF and non-CF nasal and bronchial airway epithelia using procedures similar to those described by Gray et al. 1996. Am. J Respir. Cell Mol. Biol. 14, 104-112. Resected nasal turbinates or portions of mainstem/lobar bronchi representing excess donor tissue are obtained at the time of lung transplantation under the auspices of the University of North Carolina at Chapel Hill Institutional Committee on the Protection of the Rights of Human Subjects. Epithelial cells are removed from the specimens by protease XIV digestion as described (Wu, R., et al., 1985. Am. Rev. Respir. Dis. 132, 311-320), but omitting the filtration step. 1-2×10^6 cells are plated per 100 mm tissue culture dish in modified LHC9 medium. Lechner, J. F. and Laveck, M. A. 1985. J. Tiss. Cult. Meth. 9, 43-48. The modifications include increasing the EGF concentration to 25 ng/ml, adjusting the retinoic acid concentration to 5×10^−8 M, and supplementation with 0.5 mg/ml bovine serum albumin and 0.8% bovine pituitary extract. […]
Investigations were carried out to identify which 7-TM receptors, if any, are localized in the apical membrane of WD human airway epithelial cells. Cultures of WD cells were exposed to NECA (an A2b receptor agonist), isoproterenol, bradykinin, or ATP (all at 10^−4M), and Cl-secretory responsiveness was determined.

[2] = system: A9 cells expressing the HA-epitope tagged BKII receptor; assay: bs-Ab mediated AdVLacZ gene transfer via BKII receptor; format: cell-based; settings: bs-Ab + AdV, bradykinin 1 μM 2 hrs 37° C., FIG. 5

RPPGFSPFR [bradykinin] was tested, and the Cl-secretory responsiveness [1] was “a Cl-secretory response was detected” and the “gene transfer enhancement by agonist” value [2] was “enhancement of gene transfer by activating the receptor with agonist”.
